{"sequences": {"note": "Amino acid sequences for entries named in this document (tags omitted). A change or cut given only in a name is not applied to a line headed by its entry.", "UniProt P07288": "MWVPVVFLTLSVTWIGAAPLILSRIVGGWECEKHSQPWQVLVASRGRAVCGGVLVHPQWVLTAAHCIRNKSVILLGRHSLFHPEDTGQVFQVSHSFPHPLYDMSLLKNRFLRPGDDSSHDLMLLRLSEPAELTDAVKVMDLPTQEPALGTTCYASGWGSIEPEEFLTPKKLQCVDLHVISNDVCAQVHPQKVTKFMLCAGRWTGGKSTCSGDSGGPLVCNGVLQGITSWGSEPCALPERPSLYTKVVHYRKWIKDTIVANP"}, "source": "patent US20220242969A1", "about": "(FREDAX, published 2022)", "binders": {"B1": {"name": "humanised monoclonal antibody 5A10 (h5A10) (antibody, human IgG1, kappa, V domains shown)", "VH": "QVTLKESGPALVKPTQTLTLTCTFSGFSLSTTGMGVSWIRQPPGKALEWLAHIYWDDDKRYSTSLKTRLTISEDSSKNQVVLTMTNMDPVDTATYYCARKGYYGYFDYWGQGTLVTVSS", "VL": "DIQMTQSPSSLSASVGDRVTVTCRASQNVNTDVAWYQQKPGKAPKALIFSTSYLQSGVPSRFSGSGSGTDFTLTISSLQPEDFATYYCQQYSNYPLTFGQGTKVEIKR", "notes": "also called hu5A10 (141203); h5A10 (141203)"}}, "biological_target": "T1, prostate specific antigen (PSA) (human, UniProt P07288 25-261, limits assumed)", "T1 construct": "The antigen of the SPR study is only called 'PSA' (169 ug/ml, provided by Diaprost AB, Mw 30 000 Da); also called kallikrein III", "assay": "SPR (Biacore), worded comparison with the parent murine antibody m5A10", "note": "Results are given in words; binding and its absence hold for the method and conditions named. Some results given as binding are weak or reduced against the parent protein; the word gives no strength."}
{"binder": "B1", "values": [{"measurement": "binding", "result": "binds"}]}
